Laboratory results taken from article PMC7156657.
No constants are given. Whether binding was seen depends on the method and setting. For part of these data: A result given as binding can be weak or reduced; the word gives no strength. For part of these data: Where a sequence is shown, tags or fusion partners need not be part of it. For part of these data: In cells and extracts the contact can be indirect. Each block holds one substance with its values, some of them ahead of it.

How the values were obtained:
[1] = target: T1, Flag-tagged PROM2 (PROM2-FL, full length) (human) (UniProt Q8N271); experiment: co-IP; reciprocal; lysates of AsPC-1 transfected with indicated plasmids; lysis buffer 150 mM NaCl, 10 mM HEPES pH 7.4, 1% NP-40; FLAG/HA affinity agarose overnight at 4 °C; western blot
T1 sequence: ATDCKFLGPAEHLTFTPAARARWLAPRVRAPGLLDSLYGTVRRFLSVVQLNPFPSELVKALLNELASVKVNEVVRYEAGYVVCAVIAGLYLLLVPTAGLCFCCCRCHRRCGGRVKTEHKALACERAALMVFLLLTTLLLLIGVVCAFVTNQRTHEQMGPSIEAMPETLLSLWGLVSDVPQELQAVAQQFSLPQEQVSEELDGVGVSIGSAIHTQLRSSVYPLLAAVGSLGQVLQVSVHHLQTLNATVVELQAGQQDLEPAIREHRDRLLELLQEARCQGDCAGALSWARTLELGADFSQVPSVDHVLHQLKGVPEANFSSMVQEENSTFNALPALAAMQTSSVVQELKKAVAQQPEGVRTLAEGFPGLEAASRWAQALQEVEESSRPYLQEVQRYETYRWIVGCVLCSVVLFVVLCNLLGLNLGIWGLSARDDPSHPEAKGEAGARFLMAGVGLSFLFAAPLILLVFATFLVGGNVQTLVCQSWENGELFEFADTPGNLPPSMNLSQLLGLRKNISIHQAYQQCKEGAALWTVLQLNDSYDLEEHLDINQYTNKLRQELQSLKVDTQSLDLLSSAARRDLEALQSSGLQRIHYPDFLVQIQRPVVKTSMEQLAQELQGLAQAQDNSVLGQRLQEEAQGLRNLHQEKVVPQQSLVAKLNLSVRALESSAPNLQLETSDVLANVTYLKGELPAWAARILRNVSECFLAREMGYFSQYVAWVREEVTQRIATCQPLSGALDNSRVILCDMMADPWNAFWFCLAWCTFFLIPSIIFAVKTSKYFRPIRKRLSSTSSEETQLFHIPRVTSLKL

[2] = target: T1, Flag-tagged PROM2 (PROM2-FL, full length) (human); experiment: co-IP; PROM2-AKT co-IP with PROM2-F4 (aa 534–634) expressed as inhibitor
[3] = target: T2, PROM2 F1 (aa 1–634) (human) (UniProt Q8N271); experiment: co-IP; co-IP with anti-Flag antibody of PROM2 full length and truncations F1-F4; AKT detected
T2 sequence: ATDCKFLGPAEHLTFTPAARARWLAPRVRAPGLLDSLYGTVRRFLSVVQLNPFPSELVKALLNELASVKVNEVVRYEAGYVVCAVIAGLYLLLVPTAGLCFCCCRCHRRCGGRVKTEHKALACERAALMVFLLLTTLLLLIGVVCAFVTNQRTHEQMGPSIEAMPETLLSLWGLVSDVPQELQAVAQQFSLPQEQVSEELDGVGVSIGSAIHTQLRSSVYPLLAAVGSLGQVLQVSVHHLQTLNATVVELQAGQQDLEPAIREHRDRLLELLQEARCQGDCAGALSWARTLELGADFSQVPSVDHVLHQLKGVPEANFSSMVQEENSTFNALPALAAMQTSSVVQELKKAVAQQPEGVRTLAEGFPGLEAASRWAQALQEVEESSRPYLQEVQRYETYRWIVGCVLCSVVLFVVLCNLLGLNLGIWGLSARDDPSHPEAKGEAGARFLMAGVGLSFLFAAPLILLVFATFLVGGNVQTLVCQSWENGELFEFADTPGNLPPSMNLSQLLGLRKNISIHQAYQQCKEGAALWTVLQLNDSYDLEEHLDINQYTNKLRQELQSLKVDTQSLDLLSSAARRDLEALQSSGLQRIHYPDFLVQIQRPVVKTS

[4] = target: T3, PROM2 F2 (aa 1–534) (human) (UniProt Q8N271); experiment: as above
T3 sequence: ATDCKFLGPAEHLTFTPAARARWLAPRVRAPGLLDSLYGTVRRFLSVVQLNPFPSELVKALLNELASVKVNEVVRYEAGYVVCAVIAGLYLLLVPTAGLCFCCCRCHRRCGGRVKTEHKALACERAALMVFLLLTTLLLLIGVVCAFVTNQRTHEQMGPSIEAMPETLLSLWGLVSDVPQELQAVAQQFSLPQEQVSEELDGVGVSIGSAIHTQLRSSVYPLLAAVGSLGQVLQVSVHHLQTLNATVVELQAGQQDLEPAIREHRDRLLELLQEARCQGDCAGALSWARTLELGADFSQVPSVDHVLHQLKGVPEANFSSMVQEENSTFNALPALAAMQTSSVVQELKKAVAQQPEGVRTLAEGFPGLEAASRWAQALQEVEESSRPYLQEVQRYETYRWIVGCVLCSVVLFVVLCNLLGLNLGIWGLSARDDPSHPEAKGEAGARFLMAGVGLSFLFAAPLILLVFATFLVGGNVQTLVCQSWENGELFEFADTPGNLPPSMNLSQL

[5] = target: T1, Flag-tagged PROM2 (PROM2-FL, full length) (human); experiment: as above
[6] = target: T4, PROM2-F4 (aa 534–634) (human) (UniProt Q8N271); experiment: as above
T4 sequence: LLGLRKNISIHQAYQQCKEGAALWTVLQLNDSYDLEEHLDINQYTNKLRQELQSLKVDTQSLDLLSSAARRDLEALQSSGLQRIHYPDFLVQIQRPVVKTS

[7] = target: T5, PROM2 F3 (aa 634–834) (human) (UniProt Q8N271); experiment: as above
T5 sequence: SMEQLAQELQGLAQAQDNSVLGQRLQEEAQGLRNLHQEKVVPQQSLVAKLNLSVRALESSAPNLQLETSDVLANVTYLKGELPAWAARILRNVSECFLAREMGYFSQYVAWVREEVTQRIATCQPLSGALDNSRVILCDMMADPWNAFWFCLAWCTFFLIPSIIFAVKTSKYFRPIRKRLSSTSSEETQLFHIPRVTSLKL

[8] = target: T6, endogenous PROM2 (human (endogenous in AsPC-1)) (UniProt Q8N271); experiment: co-IP; endogenous proteins in AsPC-1 cells
T6 sequence: T1 sequence

[9] = target: T1, Flag-tagged PROM2 (PROM2-FL, full length) (human); experiment: far-Western, overlay or dot blot; Flag-PROM2 from transfected AsPC-1 immunoprecipitated by Flag-tag affinity gel, resolved by SDS-PAGE, on PVDF membrane; recombinant GST-AKT added at 5 μg/ml, 4 °C, 18 h; TBST washes; both purified

- binding [1]: binds
- binding [2]: binds
- binding [3]: binds
- binding [4]: no binding
- binding [5]: binds
- binding [6]: binds
- binding [7]: no binding
Substance: HA-Akt

- binding [8]: binds
Substance: endogenous AKT (human (endogenous in AsPC-1))

- binding [9]: binds
Substance: recombinant GST-AKT protein
